Assay results reported in patent publication US12385055B2, “Compositions and methods for production of salidroside, icariside D2, and precursors of salidroside and icariside D2” (Whitehead Institute for Biomedical Research, priority 2017, dated 2025).
The name of at least one read-out is uncertain.

Legend:
[1] = AAS enzyme assay, Michaelis-Menten kinetics (peroxide detection); format: biochemical
[2] = as above; format: biochemical; remark: listed apart in the source

B1: Rhodiola rosea Rr4HPAAS, 4-hydroxyphenylacetaldehyde synthase, GenBank MF674522, SEQ ID NO: 2 (Rhodiola rosea) (protein)
chain: MGSLPSPNDPSNTFNPMDLTELSTESKLVVDFITQYYQTLETRPVQPRVKPGFLTGQLPDKAPFHGESMEVILSDVNEKIVPGLTHWQSPNFHAYFPASSSNAGLLGELLCSGLSVIGFTWSSSPAATELENVVVDWMAKMLNLPSSFCFSGGGGGVLQANTCEAVLCTLAAARDKALNRVGDDQINKLVLYCSDQTHFTIHKGAKLIGIRSKNIKSITTKKENEFKLCPNDLRDAIRSDLEAGLVPFYVCGTIGTTALGVVDPIKELGKVAREFDLWLHVDGAYGGSACICPEFQHYLDGVDLVDSISMNAHKWLLSNLDCCFLWLQSPNALIESLAAEANFLKGGSEMVDYKDWQISLSRRFRAIKMWMVIRRYGVSNLIEHIRSDVSMAVRFEEMVAADDRFEIVFPRKFALVCFKLSSEKTPPGRDSELTRELMERVNSSGKAYLSGVQMGRIFFIRCVIGSSLTEERHVDNLWRLIQETAQSIVS
kcat/Km ([1]; substrate L-DOPA): 9.15 s⁻¹ mM⁻¹ | catalytic efficiency kcat/Km ([1]; toward L-DOPA): 9.1 s⁻¹ mM⁻¹ | kcat/Km ([2]; substrate L-tyrosine): 11.71 s⁻¹ mM⁻¹ | catalytic efficiency kcat/Km ([2]; toward L-tyrosine): 11.7 s⁻¹ mM⁻¹
